From patent US20180230398A1, “PERFUME SYSTEMS” (The Procter & Gamble Company, priority 2014, published 2018)

Assay: Character description (odour character) of the PRMs of Table 1
Conditions: odour character in words

With `CCCC1(C(C)=O)CCC(C)=C(C)C1` (racemic) [Molecule 48, 1-(3,4-dimethyl-1-(R,S)-propyl-cyclohex-3-en-1-yl)ethanone] as the molecule, how does the Character description read?
Its Character description is “fresh, citrus, floral, bergamot”.

With `CC(=O)OCC(C)(C)CC=C(C)C` [Molecule 107, 2,2,5-trimethylhex-4-enyl acetate] as the molecule, how does the Character description read?
Its Character description is “citrus, bergamot”.

For `C=CCC1(C=O)CCC(C)=C(C)C1` (racemic) [Molecule 51, 1-(R,S)-allyl-3,4-dimethyl-cyclohex-3-enecarbaldehyde], which Character description is on record?
The Character description was “mint, herbal, tea, violet”.

Which Character description does the source give for `CC(=O)C1(CCC=C(C)C)CCC(C)=C(C)C1` (racemic) [Molecule 52, 1-(R,S)-(3,4-dimethyl-1-(4-methylpent-3-enyl)cyclohex-3-enyl)ethanone] here?
The Character description was “floral, green”.

For `CC(C)OC(=O)[C@@H]1CCC(C)[C@@H](C)C1` (stereo partly drawn) [Molecule 62, (R,S)-isopropyl 3,4-dimethylcyclohex-anecarboxylate], which Character description is on record?
The Character description was “fruity (banana)”.

With `CC1=C(C)CC(C(=O)OCC(C)C)CC1` (stereo not shown) [Molecule 113, isobutyl 3,4-dimethylcyclohex-3-enecarboxylate] as the molecule, how does the Character description read?
Its Character description is “green, garlic, fruity, citrus”.

For `CCCCC(=O)C(C)(C)CCC=C(C)C` [Molecule 1, 6,6,10-trimethylundec-9-en-5-one], which Character description is on record?
The Character description was “green (geranium), vegetable, violet”.

Which Character description does the source give for `CCCCC(=O)c1ccc(O)c(OCC)c1` [Molecule 32, 1-(3-ethoxy-4-hydroxyphenyl) pentan-1-one] here?
Its Character description is “sweet powder”.

With `CC1=C(C)CC(C(C)(C)O)CC1` (racemic) [Molecule 125, 2-(3,4-dimethylcyclohex-3-enyl)-(R,S)-propan-2-ol] as the molecule, how does the Character description read?
Its Character description is “spicy (fenugreek)”.

For `CC(C)=C1CCC(C)C1CO` (racemic) [Molecule 89, (2-(R,S)-methyl-5-(propan-2-ylidene)cyclopent-yl)methanol], which Character description is on record?
Its Character description is “quinoline”.

With `CCC(=O)C1(C)CCC(C)=C(C)C1` (racemic) [Molecule 57, 1-(1-(R,S),3,4-trimethylcyclohex-3-enyl)propan-1-one] as the molecule, how does the Character description read?
The Character description was “citrus, floral (fresia), herbal”.

Which Character description does the source give for `CC1CC[C@@](C)(CO)C[C@@H]1C` (stereo partly drawn) [Molecule 68, (R,S)-(1,3,4-trimethylcyclohex-yl)methanol] here?
Its Character description is “herbal, woody, clean”.

For `CCCOc1cc(C=O)ccc1OC` [Molecule 29, 4-methoxy-3-propoxybenz-aldehyde], which Character description is on record?
The Character description was “vanilla, caramel”.

Which Character description does the source give for `CCCCC(=O)C1(C)CCC(C)=C(C)C1` (racemic) [Molecule 27, 1-(1-(R,S),3,4-trimethylcyclohex-3-en-1-yl)pentan-1-one] here?
Its Character description is “woody, spicy”.

Which Character description does the source give for `CC1=C(C)CC(COC=O)CC1` (racemic) [Molecule 75, (R,S)-(3,4-dimethylcyclohex-3-enyl)methyl formate] here?
Its Character description is “aldehydic, fresh (mimosa)”.

With `COC(=O)C1(C)CCC(C)=C(C)C1` (racemic) [Molecule 122, methyl 1-(R,S),3,4-trimethyl-cyclohex-3-enecarboxylate] as the molecule, how does the Character description read?
The Character description was “fresh, citrus, herbal (bergamot)”.

For `CCC[C@]1([C@@H](C)O)CCC(C)C(C)C1` (stereo partly drawn) [Molecule 69, (R,S)-1-(3,4-dimethyl-1-propylcyclohexyl) ethanol], which Character description is on record?
The Character description was “terpenic, earthy”.

Which Character description does the source give for `Cc1ccccc1CC(C)(C)CO` [Molecule 112, 2,2-dimethyl-3-o-tolylpropan-1-ol] here?
Its Character description is “disinfectant (toilet bowl cleaner)”.

With `CCOc1cc(C(=O)C(C)C)ccc1O` [Molecule 37, 1-(3-ethoxy-4-hydroxyphenyl)-2-methylpropan-1-one] as the molecule, how does the Character description read?
The Character description was “sweet, phenolic, woody”.

Which Character description does the source give for `CC1=C(C)CC2(CC1)COC(C)(C)OC2` [Molecule 121, 3,3,8,9-tetramethyl-2,4-dioxaspiro[5.5] undec-8-ene] here?
Its Character description is “green”.

With `CCOc1cc(C(=O)C(C)CC)ccc1O` (stereo not shown) [Molecule 35, 1-(3-ethoxy-4-hydroxyphenyl)-2-methylbutan-1-one] as the molecule, how does the Character description read?
Its Character description is “sweet, almond, green”.

With `CC(C)C1(C#N)CC=CCC1` (racemic) [Molecule 82, 1-(R,S)-isopropylcyclohex-3-enecarbonitrile] as the molecule, how does the Character description read?
Its Character description is “spicy”.

For `CCCC1(CO)CCC(C)=C(C)C1` (racemic) [Molecule 132, (3,4-dimethyl-1-(R,S)-propylcyclohex-3-enyl)methanol], which Character description is on record?
Its Character description is “terpenic, pine, woody”.

With `CCC(=O)C1(CCC=C(C)C)CCC1` [Molecule 10, 1-(1-(4-methylpent-3-en-1-yl)cyclobutyl) propan-1-one] as the molecule, how does the Character description read?
The Character description was “fruity (pineapple, currant- grenadine), minty”.

For `CC1CC(C)[C@@](C)([C@@H](C)O)CC1C` (stereo partly drawn) [Molecule 88, (R,S)-1-(1,2,4,5-tetramethylcyclo-hexyl)ethanol], which Character description is on record?
Its Character description is “sweet, fruity”.

For `CC(=O)OCC(C)(C)Cc1cccc(C)c1` [Molecule 111, 2,2-dimethyl-3-m-tolylpropyl acetate], which Character description is on record?
The Character description was “citrus”.

Which Character description does the source give for `C=CCC1(C(=O)OC)CCC(C)=C(C)C1` (racemic) [Molecule 137, methyl 1-(R,S)-allyl-3,4-dimethyl-cyclohex-3-enecarboxylate] here?
The Character description was “green cucumber”.

With `CC(C)=CCC(C)(C)C(C)O` (racemic) [Molecule 141, 3,3,6-trimethylhept-5-en-2-(R,S)-ol] as the molecule, how does the Character description read?
Its Character description is “lime, lilac”.

With `Cc1cccc(CC(C)(C)COC=O)c1` [Molecule 104, 2,2-dimethyl-3-m-tolylpropyl formate] as the molecule, how does the Character description read?
The Character description was “citrus, lemon”.

Which Character description does the source give for `CCCCOC(=O)C1CCC(C)=C(C)C1` (racemic) [Molecule 66, (R,S)-butyl 3,4-dimethylcyclohex-3-enecarboxylate] here?
The Character description was “fruity, floral”.

With `CC1CCCC[C@]1(C)[C@@H](C)O` (stereo partly drawn) [Molecule 97, (R,S)-1-(1,2-dimethyl-cyclohexyl)ethanol] as the molecule, how does the Character description read?
Its Character description is “woody, earthy”.

Which Character description does the source give for `COc1ccc(C=O)cc1OC(C)C` [Molecule 30, 3-isopropoxy-4-methoxybenz-aldehyde] here?
Its Character description is “nutty, roasted”.

With `CC(=O)[C@]1(C)CC(C)=C(C)C[C@H]1C` (racemic) [Molecule 84, 1-(R,S)-(1,3,4,6-(R,S)-tetra-methylcyclohex-3-enyl)ethanone] as the molecule, how does the Character description read?
The Character description was “cedarwood”.

For `CC1=C(C)CC(C)(COC=O)CC1` (racemic) [Molecule 74, (1-(R,S),3,4-trimethylcyclohex-3-enyl)methyl formate], which Character description is on record?
Its Character description is “herbal”.

Which Character description does the source give for `CCC1(C(=O)CC(C)C)CCC(C)=C(C)C1` (racemic) [Molecule 58, 1-(1-(R,S)-ethyl-3,4-dimethyl-cyclohex-3-enyl)-3-methylbutan-1-one] here?
The Character description was “fruity, floral, herbal”.

With `COC(=O)C(C)(C)Cc1ccc(C)cc1` [Molecule 108, methyl 2,2-dimethyl-3-p-tolylpropanoate] as the molecule, how does the Character description read?
The Character description was “mushroom, chervil”.

Which Character description does the source give for `CC(=O)C1(C)CCC(C)=C(C)C1` (racemic) [Molecule 23, 1-(1-(R,S),3,4-trimethylcyclohex-3-en-1-yl)ethanone] here?
Its Character description is “fresh, citrus, herbal, woody”.

Which Character description does the source give for `CC1OC(C)(C)CCC1(C)C` (racemic) [Molecule 142, 2,2,5,5,6-(R,S)-pentamethyl-tetrahydro-2H-pyran] here?
The Character description was “camphor, green”.

For `C/C=C/C(=O)C1C(C)C(OC(C)=O)C=CC1(C)C` (stereo not shown) [Molecule 9, 5-(but-2-enoyl)-4,4,6-trimethylcyclohex-2-en-1-yl acetate], which Character description is on record?
The Character description was “apple-rose ketone smell”.

For `CC1CC[C@@H](C(=O)OC(C)(C)C)C[C@@H]1C` (stereo partly drawn) [Molecule 117, (R,S)-tert-butyl 3,4-dimethylcyclohex-anecarboxylate], which Character description is on record?
The Character description was “clean, ozonic”.

Counter-ions that a name gives are not always drawn.
